PubChem BioAssay AID493246 – Drosophila RNAi Screening Center – 2011
Screen: 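Identify essential fly genes by loss of cell viability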 (primary screen). Cell system: Drosophila Kc and S2R+ cells. Reagent: long dsRNA against Drosophila genes. Detection: 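Cell number per well after knock-down, printed as raw plate values; calls were based on per-plate z-scores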. Reading the numbers: Kc cell number and S2R+ cell number: higher = more cells remaining. Hit rule: 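Counted as a hit if cell number falls by a z-score of at least 3 within its plate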.
In all, the deposit lists about 21,000 reagents; below is a random part of those with a known target gene and a result. Over the whole deposit, 429 (2%) were called active. 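Values are raw and not normalised between plates; calls rest on per-plate z-scores that were not deposited.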 Reagents against one gene are numbered here. Names joined by + are all predicted targets of the reagent. Not given: the amount of reagent, the time to read-out.

Target gene | dsRNA no. | Kc cell number, rep 1 | Kc cell number, rep 2 | S2R+ cell number, rep 1 | S2R+ cell number, rep 2 | call
Sfxn1-3 | 1 | 1.27e6 | 1.26e6 | 1.32e6 | 1.40e6 | inactive
CG18641 | 1 | 1.79e6 | 1.80e6 | 1.13e6 | 1.20e6 | inactive
GCC185 | 1 | 1.81e6 | 1.95e6 | 1.40e6 | 1.58e6 | inactive
CG10970 | 1 | 6.07e5 | – | 9.40e5 | – | inactive
CG4393 | 1 | 1.67e6 | 1.68e6 | 1.10e6 | 1.27e6 | inactive
CG13309 | 1 | 1.45e6 | 1.34e6 | 1.02e6 | 1.04e6 | inactive
Pkg21D | 1 | 1.29e6 | 1.32e6 | 7.95e5 | 8.64e5 | inactive
Lam | 1 | 1.26e6 | 1.24e6 | 6.85e5 | 8.30e5 | active
CG31231 | 1 | 1.49e6 | 1.44e6 | 1.06e6 | 1.20e6 | inactive
Tb | 1 | 1.48e6 | 1.56e6 | 9.51e5 | 1.09e6 | inactive
CG14777 | 1 | 1.55e6 | 1.50e6 | 1.04e6 | 1.14e6 | inactive
CG31249 | 1 | 1.47e6 | 1.33e6 | 9.56e5 | 1.06e6 | inactive
Osi2 | 1 | 1.62e6 | 1.73e6 | 1.30e6 | 1.42e6 | inactive
PIG-K | 1 | 1.52e6 | 1.50e6 | 1.11e6 | 1.16e6 | inactive
Srrm234 | 1 | 1.49e6 | 1.48e6 | 9.28e5 | 1.17e6 | inactive
Srrm234 | 2 | 1.27e6 | 1.32e6 | 1.18e6 | 1.18e6 | inactive
Nse1 | 1 | 1.17e6 | 1.34e6 | 5.15e5 | 5.18e5 | inactive
CG30429 | 1 | 1.46e6 | 1.49e6 | 9.67e5 | 1.03e6 | inactive
CG13689 | 1 | 1.49e6 | 1.55e6 | 1.03e6 | 1.17e6 | inactive
CG11030 | 1 | 1.46e6 | 1.39e6 | 1.09e6 | 1.24e6 | inactive
cn | 1 | 1.65e6 | 1.75e6 | 1.36e6 | 1.64e6 | inactive
CG7362 | 1 | 1.27e6 | 1.44e6 | 1.07e6 | 1.22e6 | inactive
Irk3 | 1 | 1.75e6 | 1.83e6 | 1.24e6 | 2.89e5 | inactive
CG8314 | 1 | 1.34e6 | 1.37e6 | 1.18e6 | 1.16e6 | inactive
Epg5 | 1 | 1.21e6 | 1.21e6 | 1.12e6 | 1.22e6 | inactive
PIG-C | 1 | 1.50e6 | 1.30e6 | 9.67e5 | 1.15e6 | inactive
ARY (retired record) | 1 | 1.21e6 | 1.59e6 | 1.20e6 | 1.18e6 | inactive
RunxA | 1 | 1.18e6 | 1.37e6 | 1.10e6 | 1.11e6 | inactive
RunxA | 2 | 1.35e6 | 1.32e6 | 7.56e5 | 8.31e5 | inactive
RunxA | 3 | 1.34e6 | 1.33e6 | 9.84e5 | 1.10e6 | inactive
CG4962 | 1 | 1.61e6 | 1.78e6 | 1.47e6 | 1.54e6 | inactive
Bili | 1 | 1.55e6 | 1.58e6 | 1.20e6 | 1.22e6 | inactive
Rheb | 1 | 1.46e6 | 1.53e6 | 8.96e5 | 1.04e6 | inactive
CG11403 | 1 | 5.36e5 | – | 8.87e5 | – | inactive
CG42662 + CG30080 | 1 | 1.81e6 | 1.82e6 | 1.17e6 | 1.32e6 | inactive
CG1316 | 1 | 1.59e6 | 1.49e6 | 1.12e6 | 1.32e6 | inactive
CG32189 | 1 | 1.56e6 | 1.68e6 | 1.14e6 | 1.34e6 | inactive
CG13014 | 1 | 1.50e6 | 1.48e6 | 1.04e6 | 1.14e6 | inactive
CG14367 | 1 | 1.23e6 | 1.34e6 | 1.14e6 | 1.24e6 | inactive
Nepl11 | 1 | 1.57e6 | 1.60e6 | 1.11e6 | 1.15e6 | inactive
Rca1 | 1 | 9.36e5 | 1.08e6 | 3.90e5 | 5.13e5 | inactive
CG17544 | 1 | 1.39e6 | 1.43e6 | 1.40e6 | 1.32e6 | inactive
dor | 1 | 5.37e5 | – | 7.92e5 | – | inactive
Ass + CG31286 | 1 | 1.42e6 | 1.55e6 | 1.23e6 | 1.26e6 | inactive
CG7202 | 1 | 1.46e6 | 1.49e6 | 1.34e6 | 1.43e6 | inactive
Dora | 1 | 1.50e6 | 1.59e6 | 9.42e5 | 1.07e6 | inactive
Dora | 2 | 1.70e6 | 1.72e6 | 1.07e6 | 1.20e6 | inactive
Dora | 3 | 1.47e6 | 1.50e6 | 1.00e6 | 1.13e6 | inactive
Dora | 4 | 1.24e6 | 1.30e6 | 8.72e5 | 9.79e5 | inactive
CR31822 | 1 | 1.47e6 | 1.53e6 | 9.36e5 | 1.15e6 | inactive
CG42671 | 1 | 1.26e6 | 1.31e6 | 1.27e6 | 1.30e6 | inactive
beta-Spec | 1 | 1.68e6 | 1.68e6 | 1.05e6 | 1.19e6 | inactive
Prosbeta5R2 | 1 | 1.46e6 | 1.54e6 | 9.21e5 | 1.22e6 | inactive
CG5039 | 1 | 1.58e6 | 1.56e6 | 9.80e5 | 1.08e6 | inactive
nsl1 | 1 | 1.16e6 | 1.27e6 | 9.33e5 | 1.03e6 | inactive
Arl6 | 1 | 1.46e6 | 1.58e6 | 1.19e6 | 1.26e6 | inactive
mRpL35 | 1 | 1.14e6 | 1.21e6 | 8.95e5 | 9.72e5 | inactive
CG5653 | 1 | 1.43e6 | 1.51e6 | 1.11e6 | 1.17e6 | inactive
bsk | 1 | 1.47e6 | 1.52e6 | 1.20e6 | 1.29e6 | inactive
Taf11 | 1 | 1.58e6 | 1.61e6 | 1.24e6 | 1.41e6 | inactive
mdlc | 1 | 1.83e6 | 1.85e6 | 1.38e6 | 1.44e6 | inactive
Atg2 | 1 | 1.22e6 | 1.38e6 | 1.08e6 | 1.06e6 | inactive
CG31142 | 1 | 1.47e6 | 1.62e6 | 1.11e6 | 1.07e6 | inactive
dpr12 | 1 | 1.44e6 | 1.52e6 | 9.56e5 | 1.06e6 | inactive
dpr12 | 2 | 1.79e6 | 1.88e6 | 1.26e6 | 1.30e6 | inactive
dpr12 | 3 | 1.51e6 | 1.83e6 | 1.48e6 | 1.46e6 | inactive
EbpII | 1 | 1.43e6 | 1.50e6 | 1.12e6 | 1.17e6 | inactive
TwdlU | 1 | 1.52e6 | 1.56e6 | 1.46e6 | 1.55e6 | inactive
CG13605 | 1 | 1.52e6 | 1.56e6 | 1.15e6 | 1.20e6 | inactive
TwdlB | 1 | 1.49e6 | 1.57e6 | 9.48e5 | 1.11e6 | inactive
CG14253 | 1 | 1.45e6 | 1.50e6 | 9.77e5 | 1.10e6 | inactive
CG8950 | 1 | 1.34e6 | 1.41e6 | 1.28e6 | 1.26e6 | inactive
Qsox2 | 1 | 1.49e6 | 1.52e6 | 1.29e6 | 1.34e6 | inactive
CG4820 | 1 | 1.46e6 | 1.48e6 | 1.20e6 | 1.31e6 | inactive
viaf | 1 | 1.39e6 | 1.42e6 | 1.28e6 | 1.20e6 | inactive
